In the supplement of paper PMC10849652:
The other results are listed elsewhere or left out.

The chains behind the UniProt entries cited, without tags or fusion partners. Where a name states a change or a piece, a line headed by the entry shows the natural chain unless it says otherwise.
UniProt Q6Y288: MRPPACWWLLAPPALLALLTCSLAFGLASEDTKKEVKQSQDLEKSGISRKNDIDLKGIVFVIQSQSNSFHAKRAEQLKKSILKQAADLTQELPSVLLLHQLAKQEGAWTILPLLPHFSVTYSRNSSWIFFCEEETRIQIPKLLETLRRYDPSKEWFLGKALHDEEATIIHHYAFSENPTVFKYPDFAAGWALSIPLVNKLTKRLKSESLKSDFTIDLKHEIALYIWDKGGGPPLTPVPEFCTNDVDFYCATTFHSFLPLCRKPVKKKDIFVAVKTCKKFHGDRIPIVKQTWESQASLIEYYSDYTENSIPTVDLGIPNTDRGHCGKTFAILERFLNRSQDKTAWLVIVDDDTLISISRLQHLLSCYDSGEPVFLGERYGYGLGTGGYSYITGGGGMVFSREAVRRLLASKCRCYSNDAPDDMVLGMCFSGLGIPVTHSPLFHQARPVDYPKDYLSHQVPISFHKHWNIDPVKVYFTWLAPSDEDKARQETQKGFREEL
UniProt P23634: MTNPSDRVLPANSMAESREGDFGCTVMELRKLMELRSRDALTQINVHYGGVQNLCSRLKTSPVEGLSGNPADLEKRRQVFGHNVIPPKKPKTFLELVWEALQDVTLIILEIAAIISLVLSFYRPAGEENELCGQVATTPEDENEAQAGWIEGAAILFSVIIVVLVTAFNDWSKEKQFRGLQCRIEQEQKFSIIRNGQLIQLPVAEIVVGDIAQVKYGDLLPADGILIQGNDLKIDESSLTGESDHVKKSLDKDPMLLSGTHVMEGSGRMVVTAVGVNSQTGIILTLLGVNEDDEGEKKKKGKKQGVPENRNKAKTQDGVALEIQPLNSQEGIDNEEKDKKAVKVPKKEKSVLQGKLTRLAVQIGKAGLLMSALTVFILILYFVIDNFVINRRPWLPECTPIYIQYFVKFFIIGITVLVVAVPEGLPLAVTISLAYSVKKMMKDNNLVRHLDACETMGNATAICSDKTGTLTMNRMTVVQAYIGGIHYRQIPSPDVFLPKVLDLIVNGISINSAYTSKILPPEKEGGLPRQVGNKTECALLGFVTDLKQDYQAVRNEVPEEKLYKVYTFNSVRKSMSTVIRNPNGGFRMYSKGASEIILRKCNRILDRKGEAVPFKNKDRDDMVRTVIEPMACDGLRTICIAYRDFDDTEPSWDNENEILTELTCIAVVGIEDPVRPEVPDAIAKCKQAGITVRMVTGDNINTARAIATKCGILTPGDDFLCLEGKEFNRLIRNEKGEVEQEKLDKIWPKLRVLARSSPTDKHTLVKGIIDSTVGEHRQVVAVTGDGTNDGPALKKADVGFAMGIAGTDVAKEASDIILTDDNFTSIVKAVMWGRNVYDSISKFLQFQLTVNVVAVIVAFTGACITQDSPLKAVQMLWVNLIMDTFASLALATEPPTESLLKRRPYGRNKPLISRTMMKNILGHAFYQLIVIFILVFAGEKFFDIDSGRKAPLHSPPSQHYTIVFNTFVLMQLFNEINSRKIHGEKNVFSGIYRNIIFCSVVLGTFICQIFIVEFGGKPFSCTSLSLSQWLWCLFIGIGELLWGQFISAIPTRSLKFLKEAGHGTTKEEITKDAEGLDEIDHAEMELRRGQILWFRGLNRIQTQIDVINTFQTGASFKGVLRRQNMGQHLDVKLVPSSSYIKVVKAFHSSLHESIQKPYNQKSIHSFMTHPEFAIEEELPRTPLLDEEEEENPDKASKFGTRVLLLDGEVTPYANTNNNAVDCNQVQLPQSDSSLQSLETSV
UniProt P30049: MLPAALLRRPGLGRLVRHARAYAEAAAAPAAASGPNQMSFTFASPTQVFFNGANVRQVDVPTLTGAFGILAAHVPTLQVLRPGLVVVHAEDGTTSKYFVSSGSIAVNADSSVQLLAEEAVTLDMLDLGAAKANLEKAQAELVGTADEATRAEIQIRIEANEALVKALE
UniProt Q9Y6H3: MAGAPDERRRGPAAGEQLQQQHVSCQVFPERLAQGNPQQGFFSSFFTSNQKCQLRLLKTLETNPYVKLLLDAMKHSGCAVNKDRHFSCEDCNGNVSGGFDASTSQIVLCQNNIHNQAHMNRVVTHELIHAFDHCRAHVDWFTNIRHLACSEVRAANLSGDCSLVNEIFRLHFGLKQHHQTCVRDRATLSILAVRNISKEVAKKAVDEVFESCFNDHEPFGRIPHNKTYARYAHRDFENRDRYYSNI
UniProt P54252: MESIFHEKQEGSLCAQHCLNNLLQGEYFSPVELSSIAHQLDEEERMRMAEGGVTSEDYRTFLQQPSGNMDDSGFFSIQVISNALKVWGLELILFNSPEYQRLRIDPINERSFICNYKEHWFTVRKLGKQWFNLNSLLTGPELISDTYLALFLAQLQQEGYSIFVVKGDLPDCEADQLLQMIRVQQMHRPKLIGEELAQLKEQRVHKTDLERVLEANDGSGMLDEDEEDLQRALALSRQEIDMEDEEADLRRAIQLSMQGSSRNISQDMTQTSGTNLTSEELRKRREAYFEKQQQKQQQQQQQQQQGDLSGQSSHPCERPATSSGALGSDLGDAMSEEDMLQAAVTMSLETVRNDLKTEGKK
UniProt P25311: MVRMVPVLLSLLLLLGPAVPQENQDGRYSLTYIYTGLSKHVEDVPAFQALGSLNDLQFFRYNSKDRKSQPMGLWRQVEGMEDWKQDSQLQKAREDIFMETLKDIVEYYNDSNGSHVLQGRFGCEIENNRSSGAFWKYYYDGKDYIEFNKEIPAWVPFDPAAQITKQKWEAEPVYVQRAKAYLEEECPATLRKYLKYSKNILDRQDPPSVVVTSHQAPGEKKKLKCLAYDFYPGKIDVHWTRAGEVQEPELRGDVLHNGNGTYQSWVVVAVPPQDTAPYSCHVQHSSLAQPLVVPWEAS
UniProt Q96A05, whole entry, looked up: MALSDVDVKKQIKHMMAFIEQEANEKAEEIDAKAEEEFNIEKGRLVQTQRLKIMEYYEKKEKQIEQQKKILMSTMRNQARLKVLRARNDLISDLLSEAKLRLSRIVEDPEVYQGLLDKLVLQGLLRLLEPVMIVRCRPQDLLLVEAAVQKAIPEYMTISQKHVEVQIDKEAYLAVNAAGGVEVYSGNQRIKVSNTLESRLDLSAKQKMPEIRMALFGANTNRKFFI
UniProt Q9BSB4: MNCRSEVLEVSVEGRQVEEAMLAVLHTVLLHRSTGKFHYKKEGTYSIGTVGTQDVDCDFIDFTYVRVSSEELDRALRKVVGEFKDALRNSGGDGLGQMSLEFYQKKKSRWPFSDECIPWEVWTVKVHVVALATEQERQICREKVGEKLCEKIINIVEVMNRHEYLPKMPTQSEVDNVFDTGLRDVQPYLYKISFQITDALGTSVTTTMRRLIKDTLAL
UniProt P61769, whole entry, looked up: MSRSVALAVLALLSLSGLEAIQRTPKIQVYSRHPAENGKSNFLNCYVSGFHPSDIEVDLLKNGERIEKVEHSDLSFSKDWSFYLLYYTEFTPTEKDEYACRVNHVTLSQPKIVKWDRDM
UniProt Q9NWX5: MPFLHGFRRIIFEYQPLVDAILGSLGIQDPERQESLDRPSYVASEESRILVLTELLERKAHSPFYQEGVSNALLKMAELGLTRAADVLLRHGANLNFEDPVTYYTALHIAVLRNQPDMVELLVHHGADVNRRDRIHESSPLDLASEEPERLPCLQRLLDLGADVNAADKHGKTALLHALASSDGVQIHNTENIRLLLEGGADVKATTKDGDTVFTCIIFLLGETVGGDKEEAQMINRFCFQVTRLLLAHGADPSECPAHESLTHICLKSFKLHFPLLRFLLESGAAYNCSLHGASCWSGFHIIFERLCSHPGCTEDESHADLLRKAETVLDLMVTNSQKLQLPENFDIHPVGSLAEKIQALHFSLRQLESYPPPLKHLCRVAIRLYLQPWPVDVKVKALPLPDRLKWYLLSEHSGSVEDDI
UniProt P36543, whole entry, looked up: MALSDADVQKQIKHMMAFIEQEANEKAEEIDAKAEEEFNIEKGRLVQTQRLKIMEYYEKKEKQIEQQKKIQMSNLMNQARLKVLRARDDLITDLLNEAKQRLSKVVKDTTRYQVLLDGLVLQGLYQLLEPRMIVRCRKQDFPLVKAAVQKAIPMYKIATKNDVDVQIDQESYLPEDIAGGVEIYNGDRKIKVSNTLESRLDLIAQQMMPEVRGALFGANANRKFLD
UniProt P18859: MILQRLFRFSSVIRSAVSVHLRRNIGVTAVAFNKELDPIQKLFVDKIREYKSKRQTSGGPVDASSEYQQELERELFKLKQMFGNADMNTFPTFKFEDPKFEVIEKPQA
UniProt O95352: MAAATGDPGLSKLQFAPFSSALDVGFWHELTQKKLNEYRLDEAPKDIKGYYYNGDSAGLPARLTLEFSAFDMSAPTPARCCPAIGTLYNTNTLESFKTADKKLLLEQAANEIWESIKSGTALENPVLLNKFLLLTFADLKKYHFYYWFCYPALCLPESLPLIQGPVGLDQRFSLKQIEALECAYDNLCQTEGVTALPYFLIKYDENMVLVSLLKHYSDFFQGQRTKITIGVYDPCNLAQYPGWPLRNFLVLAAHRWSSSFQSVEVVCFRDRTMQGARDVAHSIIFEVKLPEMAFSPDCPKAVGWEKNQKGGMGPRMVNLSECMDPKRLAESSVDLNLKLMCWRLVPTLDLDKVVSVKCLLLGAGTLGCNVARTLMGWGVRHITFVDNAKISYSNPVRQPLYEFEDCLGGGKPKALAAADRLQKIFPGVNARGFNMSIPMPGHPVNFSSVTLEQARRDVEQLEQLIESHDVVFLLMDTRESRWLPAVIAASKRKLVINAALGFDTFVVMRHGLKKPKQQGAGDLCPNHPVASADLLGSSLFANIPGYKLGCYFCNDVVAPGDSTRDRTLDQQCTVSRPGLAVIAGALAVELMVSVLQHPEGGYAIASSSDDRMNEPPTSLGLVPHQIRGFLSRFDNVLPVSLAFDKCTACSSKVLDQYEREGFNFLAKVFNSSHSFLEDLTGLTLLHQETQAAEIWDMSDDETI
UniProt Q8WXE1: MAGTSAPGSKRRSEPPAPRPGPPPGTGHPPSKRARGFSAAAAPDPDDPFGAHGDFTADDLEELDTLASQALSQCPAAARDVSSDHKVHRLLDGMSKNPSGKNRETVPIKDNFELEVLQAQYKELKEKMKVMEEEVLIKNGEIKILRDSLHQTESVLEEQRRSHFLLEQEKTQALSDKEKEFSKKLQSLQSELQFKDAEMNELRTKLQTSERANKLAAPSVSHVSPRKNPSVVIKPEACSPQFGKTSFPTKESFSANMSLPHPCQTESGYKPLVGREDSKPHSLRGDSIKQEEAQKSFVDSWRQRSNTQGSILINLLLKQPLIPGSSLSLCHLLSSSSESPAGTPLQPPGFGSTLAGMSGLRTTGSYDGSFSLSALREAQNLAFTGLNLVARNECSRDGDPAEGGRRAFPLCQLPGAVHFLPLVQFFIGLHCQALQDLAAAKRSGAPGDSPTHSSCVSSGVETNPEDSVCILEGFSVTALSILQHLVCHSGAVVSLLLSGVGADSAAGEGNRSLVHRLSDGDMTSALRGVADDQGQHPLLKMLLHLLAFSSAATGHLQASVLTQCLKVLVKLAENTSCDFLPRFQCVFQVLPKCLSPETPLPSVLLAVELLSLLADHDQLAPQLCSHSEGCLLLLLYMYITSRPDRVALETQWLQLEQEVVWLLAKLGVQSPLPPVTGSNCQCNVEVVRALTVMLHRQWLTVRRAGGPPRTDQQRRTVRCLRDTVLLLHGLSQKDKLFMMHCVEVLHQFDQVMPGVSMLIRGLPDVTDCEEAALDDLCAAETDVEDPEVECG
UniProt Q8NBF6: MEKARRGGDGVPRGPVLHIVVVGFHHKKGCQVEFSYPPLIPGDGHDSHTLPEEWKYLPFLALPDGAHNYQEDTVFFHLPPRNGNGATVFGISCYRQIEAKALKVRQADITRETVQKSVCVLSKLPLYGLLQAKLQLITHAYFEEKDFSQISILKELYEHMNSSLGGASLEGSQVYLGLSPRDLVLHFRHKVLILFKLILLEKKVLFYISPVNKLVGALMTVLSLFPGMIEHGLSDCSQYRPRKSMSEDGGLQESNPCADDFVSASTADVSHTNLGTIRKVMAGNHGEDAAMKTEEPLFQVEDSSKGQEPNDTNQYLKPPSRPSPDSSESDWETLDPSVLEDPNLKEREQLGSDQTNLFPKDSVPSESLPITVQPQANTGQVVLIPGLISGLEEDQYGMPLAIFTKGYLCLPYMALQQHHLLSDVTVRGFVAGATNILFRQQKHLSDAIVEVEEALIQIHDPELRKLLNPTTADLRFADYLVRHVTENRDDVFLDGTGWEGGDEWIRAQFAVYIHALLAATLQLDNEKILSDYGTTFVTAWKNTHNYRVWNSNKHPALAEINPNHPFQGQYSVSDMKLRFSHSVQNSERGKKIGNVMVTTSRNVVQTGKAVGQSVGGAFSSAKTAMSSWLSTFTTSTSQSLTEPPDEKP
UniProt Q16864, whole entry, looked up: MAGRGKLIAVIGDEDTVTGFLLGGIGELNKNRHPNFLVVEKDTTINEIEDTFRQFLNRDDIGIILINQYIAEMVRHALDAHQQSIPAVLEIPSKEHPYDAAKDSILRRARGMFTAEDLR

The targets below were run with CC1=C(C2=C(C=C1)C(=O)C3=CC=CC=C3N2CCCN)C (assay: log2 fold change, soluble protein after heating vs DMSO (PISA); higher = thermal stabilisation; K562 lysate, 10 uM; active = over 0.2 and 3.5 SD of the protein, either way, in both replicates (recomputed)).
Outline: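 Log-two fold change in thermal stability relative to solvent controls is reported from duplicates. For each sample, crude K562 extract from dounce-homogenised pellets in PBS pH 7.4 with 1 mM MgCl2, at 1 mg/mL protein, was treated with 10 μM compound for 30 min. Aliquots heated for 3 min across 48°C-58°C were pooled, brought to 0.5% NP-40 at 4°C and cleared at 21,000xg for 90 min. The supernatant was quantified by TMTpro 16plex LC-MS/MS with channel sums equalised.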
B3GLCT (UniProt Q6Y288) was tested, and the log2 fold change was inactive: -0.019. With ATP13A1 (UniProt Q9HD20) the log2 fold change was inactive: -0.089. In the case of ATP5F1C (UniProt P36542), the log2 fold change is reported as inactive: -0.013. In the case of ATP2B4 (UniProt P23634), the log2 fold change is reported as inactive: -0.034. ATP5F1D (UniProt P30049) was tested, and the log2 fold change was inactive: 0.01. In the case of ATP23 (UniProt Q9Y6H3), the log2 fold change is reported as inactive: 0.017. ATXN3 isoform 1 (UniProt P54252) was tested, and the log2 fold change was inactive: 0.052. In the case of AZGP1 (UniProt P25311), the log2 fold change is reported as inactive: 0.284. For ASH2L (UniProt Q9UBL3), the log2 fold change was inactive: -0.012. ATG9A (UniProt Q7Z3C6) was tested, and the log2 fold change was inactive: -0.042. In the case of ATP6V1E2 (UniProt Q96A05), the log2 fold change is reported as inactive: -0.012. For ATP1A1 (UniProt P05023), the log2 fold change was inactive: -0.012. For ATG101 (UniProt Q9BSB4), the log2 fold change was inactive: -0.006. B2M (UniProt P61769) was tested, and the log2 fold change was inactive: -0.134. With ASB6 (UniProt Q9NWX5) the log2 fold change was inactive: -0.007. ATP11A (UniProt P98196) was tested, and the log2 fold change was inactive: -0.065. With ATP6V1E1 (UniProt P36543) the log2 fold change was inactive: 0.008. In the case of ATP5PF isoform 2 (UniProt P18859), the log2 fold change is reported as inactive: -0.055. With ATP13A2 (UniProt Q9NQ11) the log2 fold change was inactive: 0.031. In the case of ATG7 (UniProt O95352), the log2 fold change is reported as inactive: 0.002. In the case of ATRIP (UniProt Q8WXE1), the log2 fold change is reported as inactive: 0.005. In the case of AVL9 (UniProt Q8NBF6), the log2 fold change is reported as inactive: -0.011. ATP6V1F isoform 2 (UniProt Q16864) was tested, and the log2 fold change was inactive: -0.064.
